Reference: patent US11834451B2 (priority 2021, dated 2023)
Some results come without the dose or concentration used.

tested on: EV-D68; assay type: cell-based, enterovirus D68 (EV-D68)

Row | Compound | SI50, Anti-EV-D68 US/KY/14-18953 | SI50, EV-D68 US/IL/14-18952 (Clade B2) | SI50, EV-D68 US/IL/14-18956 (Clade B2) | SI50, EV-D68 US/KY/14-18953 (Clade D) | SI50, EV-D68 US/MO/14-18947 (Clade B1) | SI50, EV-D68 US/MO/14-18949 (Clade B1)
1 | CC(CN(C)C)NC(=O)c1cc(C(C)C)nc2c1cnn2C(C)C (stereo not drawn) [Compound 10c, N-[1-(dimethylamino)propan-2-yl]-1,6-bis(propan-2-yl)-1H-pyrazolo[3,4-b]pyridine-4-carboxamide] | EC50 = 0.1 ± 0.0 CC50 >100.0 SI50 >1000.0 |  |  |  |  | 
2 | CC(C)n1ncc2c(C(=O)NCCN)cc(C3CC3)nc21 [Compound 7i, N-(2-aminoethyl)-6-cyclopropyl-1-(propan-2-yl)-1H-pyrazolo[3,4-b]pyridine-4-carboxamide] | EC50 = 0.4 ± 0.2 CC50 = 259.3 ± 11.3 SI50 = 648.3 |  |  |  |  | 
3 | CC(CN)NC(=O)c1cc(C2CC2)nc2c1cnn2C(C)C (stereo not drawn) [Compound 7j, N-(1-aminopropan-2-yl)-6-cyclopropyl-1-(propan-2-yl)-1H-pyrazolo[3,4-b]pyridine-4-carboxamide] | EC50 = 0.3 ± 0.1 CC50 = 112.9 ± 8.7 SI50 = 376.3 |  |  |  |  | 
4 | CNCCNC(=O)c1cc(C(C)C)nc2c1cnn2C(C)C [Compound 10d, N-[2-(methylamino)ethyl]-1,6-bis(propan-2-yl)-1H-pyrazolo[3,4-b]pyridine-4-carboxamide] | EC50 = 0.4 ± 0.2 CC50 >100.0 SI50 >250.0 |  |  |  |  | 
5 | CCCn1ncc2c(C(=O)NCCN(C)C)cc(C3CC3)nc21 [Compound 20, 6-cyclopropyl-N-[2-(dimethylamino)ethyl]-1-propyl-1H-pyrazolo[3,4-b]pyridine-4-carboxamide] | EC50 = 1.2 ± 0.2 CC50 = 57.7 ± 10.1 SI50 = 48.1 |  |  |  |  | 
6 | Cc1cc(C(=O)NCCN(C)C)c2cnn(C3CCCC3)c2n1 [Compound 13, 1-cyclopentyl-N-[2-(dimethylamino)ethyl]-6-methyl-1H-pyrazolo[3,4-b]pyridine-4-carboxamide] | EC50 = 11.1 ± 0.3 CC50 = 88.4 ± 18.5 SI50 = 8.0 |  |  |  |  | 
7 | CC(CN)NC(=O)c1cc(C(C)C)nc2c1cnn2C(C)C (stereo not drawn) [Compound 10f, N-(1-aminopropan-2-yl)-1,6-bis(propan-2-yl)-1H-pyrazolo[3,4-b]pyridine-4-carboxamide] | EC50 = 0.4 ± 0.3 CC50 = 118.1 ± 15.4 SI50 = 295.3 |  |  |  |  | 
8 | CCCn1ncc2c(C(=O)NCCN(C)C)cc(C)nc21 [Compound 14, N-[2-(dimethylamino)ethyl]-6-methyl-1-propyl-1H-pyrazolo[3,4-b]pyridine-4-carboxamide] | EC50 = 48.4 ± 2.2 CC50 = 218.6 ± 25.3 SI50 = 4.5 |  |  |  |  | 
9 | CC(C)n1ncc2c(C(=O)NCCN3CCCC3)cc(C3CC3)nc21 [Compound 7b, 6-cyclopropyl-1-(propan-2-yl)-N-[2-(pyrrolidin-1-yl)ethyl]-1H-pyrazolo[3,4-b]pyridine-4-carboxamide] | EC50 = 0.1 ± 0.1 CC50 = 46.5 ± 3.0 SI50 = 465.0 |  |  |  |  | 
10 | CCC(C)n1ncc2c(C(=O)NCCN(C)C)cc(C3CC3)nc21 (stereo not drawn) [Compound 21, 1-(butan-2-yl)-6-cyclopropyl-N-[2-(dimethylamino)ethyl]-1H-pyrazolo[3,4-b]pyridine-4-carboxamide] | EC50 = 0.2 ± 0.1 CC50 = 40.7 ± 2.8 SI50 = 203.5 |  |  |  |  | 
11 | CC(C)n1ncc2c(C(=O)NC3CNC3)cc(C3CC3)nc21 [Compound 7e, N-(azetidin-3-yl)-6-cyclopropyl-1-(propan-2-yl)-1H-pyrazolo[3,4-b]pyridine-4-carboxamide] | EC50 = 1.4 ± 0.1 CC50 = 91.6 ± 22.1 SI50 = 65.4 |  |  |  |  | 
12 | CC(C)n1ncc2c(C(=O)NCCCN(C)C)cc(C3CC3)nc21 [Compound 7l, 6-cyclopropyl-N-[3-(dimethylamino)propyl]-1-(propan-2-yl)-1H-pyrazolo[3,4-b]pyridine-4-carboxamide] | EC50 = 1.2 ± 0.3 CC50 = 74.1 ± 2.5 SI50 = 61.8 |  |  |  |  | 
13 | CC(C)n1ncc2c(C(=O)NCCN)cc(C(C)(C)C)nc21 [Compound 11b, N-(2-aminoethyl)-6-tert-butyl-1-(propan-2-yl)-1H-pyrazolo[3,4-b]pyridine-4-carboxamide] | EC50 = 0.1 ± 0.1 CC50 = 24.6 ± 3.1 SI50 = 246.0 |  |  |  |  | 
14 | CC(C)c1cc(C(=O)NCCN)c2cnn(C(C)C)c2n1 [Compound 10e, N-(2-aminoethyl)-1,6-bis(propan-2-yl)-1H-pyrazolo[3,4-b]pyridine-4-carboxamide] | EC50 = 0.6 ± 0.2 CC50 = 169.5 ± 8.6 SI50 = 282.5 |  |  |  |  | 
15 | Cc1cc(C(=O)NC2CN(C)C2)c2cnn(C(C)C)c2n1 [Compound 12c, 6-methyl-N-(1-methylazetidin-3-yl)-1-(propan-2-yl)-1H-pyrazolo[3,4-b]pyridine-4-carboxamide] | EC50 = 11.3 ± 1.6 CC50 >300.0 SI50 >26.5 |  |  |  |  | 
16 | CCn1ncc2c(C(=O)NCCN(C)C)cc(C)nc21 [Compound 15a, N-[2-(dimethylamino)ethyl]-1-ethyl-6-methyl-1H-pyrazolo[3,4-b]pyridine-4-carboxamide] | EC50 = 18.3 ± 0.5 CC50 >300 SI50 >16.4 |  |  |  |  | 

Row | Compound | SI50, Anti-EV-D68 US/KY/14-18953 | SI50, EV-D68 US/IL/14-18952 (Clade B2) | SI50, EV-D68 US/IL/14-18956 (Clade B2) | SI50, EV-D68 US/KY/14-18953 (Clade D) | SI50, EV-D68 US/MO/14-18947 (Clade B1) | SI50, EV-D68 US/MO/14-18949 (Clade B1)
17 | CCN(CC)CCNC(=O)c1cc(C2CC2)nc2c1cnn2C(C)C [Compound 7c, 6-cyclopropyl-N-[2-(diethylamino)ethyl]-1-(propan-2-yl)-1H-pyrazolo[3,4-b]pyridine-4-carboxamide] | EC50 = 0.4 ± 0.2 CC50 = 89.9 ± 10.8 SI50 = 224.8 |  |  |  |  | 
18 | Cc1cc(C(=O)NC2CCN(C)C2)c2cnn(C(C)C)c2n1 (stereo not drawn) [Compound 12b, 6-methyl-N-(1-methylpyrrolidin-3-yl)-1-(propan-2-yl)-1H-pyrazolo[3,4-b]pyridine-4-carboxamide] | EC50 = 1.8 ± 0.2 CC50 >300.0 SI50 >166.7 |  |  |  |  | 
19 | Cc1cc(C(=O)NCCN(C)C)c2c(C)nn(C(C)(C)C)c2n1 [Compound 19, 1-tert-butyl-N-[2-(dimethylamino)ethyl]-3,6-dimethyl-1H-pyrazolo[3,4-b]pyridine-4-carboxamide] | EC50 = 1.0 ± 0.1 CC50 = 116.6 ± 16.1 SI50 = 116.6 | SI50 = 166.6 | SI50 = 291.5 | SI50 = 116.6 | SI50 = 291.5 | SI50 = 166.6
20 | CCN(CC)CCCNC(=O)c1cc(C2CC2)nc2c1cnn2C(C)C [Compound 7k, 6-cyclopropyl-N-[3-(diethylamino)propyl]-1-(propan-2-yl)-1H-pyrazolo[3,4-b]pyridine-4-carboxamide] | EC50 = 1.9 ± 0.2 CC50 = 43.8 ± 1.3 SI50 = 23.1 |  |  |  |  | 
21 | CC(C)c1cc(C(=O)NCCN(C)C)c2cnn(C(C)C)c2n1 [Compound 10a, N-[2-(dimethylamino)ethyl]-1,6-bis(propan-2-yl)-1H-pyrazolo[3,4-b]pyridine-4-carboxamide] | EC50 = 0.1 ± 0.2 CC50 = 160.9 ± 12.8 SI50 = 1609.0 | SI50 = 1787.8 | SI50 = 2298.6 | SI50 = 1609 | SI50 = 2298.6 | SI50 = 2011.3
22 | CC(C)c1cc(C(=O)NCCO)c2cnn(C(C)C)c2n1 [Compound 10b, N-(2-hydroxyethyl)-1,6-bis(propan-2-yl)-1H-pyrazolo[3,4-b]pyridine-4-carboxamide] | EC50 = 9.8 ± 2.3 CC50 >100.0 SI50 >10.2 |  |  |  |  | 
23 | CC(C1CC1)n1ncc2c(C(=O)NCCN(C)C)cc(C3CC3)nc21 (stereo not drawn) [Compound 22, 6-cyclopropyl-1-(1-cyclopropylethyl)-N-[2-(dimethylamino)ethyl]-1H-pyrazolo[3,4-b]pyridine-4-carboxamide] | EC50 = 0.7 ± 0.2 CC50 = 28.4 ± 2.3 SI50 = 40.6 |  |  |  |  | 
24 | Cc1cc(C(=O)NCCN(C)C)c2cnn(C(C)C)c2n1 [Compound 12a, N-[2-(dimethylamino)ethyl]-6-methyl-1-(propan-2-yl)-1H-pyrazolo[3,4-b]pyridine-4-carboxamide] | EC50 = 0.4 ± 0.2 CC50 = 112.3 ± 19.6 SI50 = 280.8 |  |  |  |  | 
25 | CN(C)CCNC(=O)c1cc(C2CC2)nc2c1cnn2C [Compound 17, 6-cyclopropyl-N-[2-(dimethylamino)ethyl]-1-methyl-1H-pyrazolo[3,4-b]pyridine-4-carboxamide] | EC50 = 9.8 ± 1.5 CC50 >300 SI50 >30.6 |  |  |  |  | 
26 | CNCCNC(=O)c1cc(C2CC2)nc2c1c(C)nn2C(C)(C)C [Compound 18b, 1-tert-butyl-6-cyclopropyl-3-methyl-N-[2-(methylamino)ethyl]-1H-pyrazolo[3,4-b]pyridine-4-carboxamide] | EC50 = 1.1 ± 0.5 CC50 = 31.9 ± 8.2 SI50 = 29.0 |  |  |  |  | 
27 | CNCCCNC(=O)c1cc(C2CC2)nc2c1cnn2C(C)C [Compound 7m, 6-cyclopropyl-N-[3-(methylamino)propyl]-1-(propan-2-yl)-1H-pyrazolo[3,4-b]pyridine-4-carboxamide] | EC50 = 1.7 ± 0.2 CC50 = 183.0 ± 20.1 SI50 = 107.6 |  |  |  |  | 
28 | CCn1ncc2c(C(=O)NCCNC)cc(C)nc21 [Compound 15b, 1-ethyl-6-methyl-N-[2-(methylamino)ethyl]-1H-pyrazolo[3,4-b]pyridine-4-carboxamide] | EC50 = 58.4 ± 1.9 CC50 >300 SI50 >5.1 |  |  |  |  | 
29 | CC(C)n1ncc2c(C(=O)NC3CCN(C)C3)cc(C3CC3)nc21 (stereo not drawn) [Compound 7g, 6-cyclopropyl-N-(1-methylpyrrolidin-3-yl)-1-(propan-2-yl)-1H-pyrazolo[3,4-b]pyridine-4-carboxamide] | EC50 = 0.1 ± 0.2 CC50 = 20.7 ± 1.9 SI50 = 207.0 |  |  |  |  | 
30 | Cc1cc(C(=O)NCCN)c2cnn(C(C)C)c2n1 [Compound 12e, N-(2-aminoethyl)-6-methyl-1-(propan-2-yl)-1H-pyrazolo[3,4-b]pyridine-4-carboxamide] | EC50 = 4.7 ± 0.6 CC50 >300.0 SI50 >63.8 |  |  |  |  | 
31 | Cc1nn(C(C)(C)C)c2nc(C3CC3)cc(C(=O)NCCN(C)C)c12 [Compound 18a, 1-tert-butyl-6-cyclopropyl-N-[2-(dimethylamino)ethyl]-3-methyl-1H-pyrazolo[3,4-b]pyridine-4-carboxamide] | EC50 = 0.8 ± 0.2 CC50 = 45.2 ± 27.6 SI50 = 56.5 |  |  |  |  | 
32 | CC(CN(C)C)NC(=O)c1cc(C2CC2)nc2c1cnn2C(C)C (stereo not drawn) [Compound 7f, 6-cyclopropyl-N-[1-(dimethylamino)propan-2-yl]-1-(propan-2-yl)-1H-pyrazolo[3,4-b]pyridine-4-carboxamide] | EC50 = 0.1 ± 0.2 CC50 = 72.6 ± 11.3 SI50 = 726.0 |  |  |  |  | 
